Test results published in the supplement of paper PMC10338343.
± gives the standard deviation. This is a selection; strong and weak results do not stand in their true shares. The uncertainty is large for many entries.

Columns and labels:
[1] = test system: MILI (PIWIL2) piRISC loaded with L1MC piRNA (26 nt); assay: pre-steady-state target cleavage rate (min^-1); MIWI and MILI are mouse PIWI proteins and EfPiwi is from a freshwater sponge; tags in brackets are library labels; higher = faster piRNA-guided slicing of the target; conditions: guide: L1MC piRNA 5'p-UAACUAAAUACUAUGCAAGCUGUAGG
Method in brief: (§1)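 For Cleave-'n-Seq, a transcribed, DNA-blocked target RNA library […] met 1 nM active affinity-purified piRISC with one synthetic guide at 33 °C for 0–8 or 0–960 min in HEPES–potassium acetate buffer, with or without 500 nM GTSF1 partner protein. Uncleaved targets were sequenced and normalised to depth and weakly complementary targets, with three trials pooled and k3 capped at 0.0001 min^-1. A burst-and-steady-state fit supplied the pre-steady-state cleavage rate.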

[2] = test system: MIWI (PIWIL1) piRISC loaded with L1MC piRNA (30 nt); assay: as above; conditions: guide: L1MC piRNA 5'p-UAACUAAAUACUAUGCAAGCUGUAGGUCCU
Method in brief: as §1

[3] = auxiliary factor: none (no GTSF1)
[4] = auxiliary factor: 500 nM mouse GTSF1
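Note: 1 nM active piRISC with 0.1 nM target library at 33 °C single turnover.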

| Sequence | pre-steady-state target cleavage rate [1, 3] | pre-steady-state target cleavage rate [2, 3] | pre-steady-state target cleavage rate [1, 4] | pre-steady-state target cleavage rate [2, 4] |
| --- | --- | --- | --- | --- |
| UCCUGCUACAGCAACCAUAGUAUUUACAAA | 0.000214 ± 0.018 | 0.00065 ± 0.017 |  |  |
| UCCUGGAUGUCCUUGCAUAGUUAAUAGUUA | 0.0025 ± 0.0026 | 0.00178 ± 0.0033 |  |  |
| UCCUGGAUGUCGAACCUUAGUAUUUAGUAA | 0.000408 ± 0.0085 | 0.000291 ± 0.012 |  |  |
| UCCUGGAUGUCGUUGCAUAGUAUUUAUGUUA | 0.00205 ± 0.0055 | 0.000901 ± 0.011 |  |  |
| UCCUGGAUGUCCUUGGUUAGUAUUUAGUAA | 0.00239 ± 0.003 | 0.0012 ± 0.006 |  |  |
| UCCUGGAUGUCGAUGGAUAGUAUAUAGUUA | 0.000118 ± 0.046 | 0.00033 ± 0.023 |  |  |
| UCCUGGAUGUCGAACCAUAUAUUUAGUUA | 0.000168 ± 0.03 | 0.000475 ± 0.0095 |  |  |
| UCCUGGAUGUCGAACGAUAGUUUUAGUUA | 0.000134 ± 0.031 | 0.000291 ± 0.018 |  |  |
| UCCUGGUACUCCUUGCAUAGUAUUUAGAAA | 0.00086 ± 0.0079 | 0.00131 ± 0.0039 |  |  |
| UCCUGGAUCAGCAAGCAUAGUAUUUUCAAA | 0.00056 ± 0.0073 | 0.000752 ± 0.0091 |  |  |
| UCCUGCUACAGGAAGCAUAGUAUUUAGAAA | 0.00071 ± 0.0086 | 0.000463 ± 0.011 |  |  |
| UCCUGGAUGUCCUUCGAUAGUAUUUAGUAA | 0.000512 ± 0.011 | 0.000655 ± 0.011 |  |  |
| UCCUGGAUGUCGAACCAUACUUUUUAGUUA | 0.000226 ± 0.015 | 0.000336 ± 0.012 |  |  |
| UCCUGGAUGUCCUAGCAUAGUAUUUAGUAA | 0.00189 ± 0.0037 | 0.00158 ± 0.0044 |  |  |
| UCCUGCUACAGCUUGCUUAGUAUUUACAAA | 0.00108 ± 0.004 | 0.00123 ± 0.0064 |  |  |
| UCCUGGAUGAGCUUGCAUAGUAAAUAGAAA | 0.000587 ± 0.012 | 0.000509 ± 0.0086 |  |  |
| UCCUGGAUGUCGAACGUUUCUAUUUAGUUA | 0.000239 ± 0.016 | 0.000206 ± 0.021 |  |  |
| UCCUGGAACAGCUUGCAUACAAUUUAGUAA | 0.000836 ± 0.0074 | 0.00158 ± 0.0039 |  |  |

Seven entries from above, reformatted:
Sequence	pre-steady-state target cleavage rate [1, 3]	pre-steady-state target cleavage rate [2, 3]	pre-steady-state target cleavage rate [1, 4]	pre-steady-state target cleavage rate [2, 4]
UCCUGGAUGUCCUUGCAUAGUUAAUAGUUA	0.0025 ± 0.0026	0.00178 ± 0.0033		
UCCUGGAUGUCCUUGGUUAGUAUUUAGUAA	0.00239 ± 0.003	0.0012 ± 0.006		
UCCUGGAUGUCGAACCAUAUAUUUAGUUA	0.000168 ± 0.03	0.000475 ± 0.0095		
UCCUGGUACUCCUUGCAUAGUAUUUAGAAA	0.00086 ± 0.0079	0.00131 ± 0.0039		
UCCUGGAUCAGCAAGCAUAGUAUUUUCAAA	0.00056 ± 0.0073	0.000752 ± 0.0091		
UCCUGGAUGUCGAACCAUACUUUUUAGUUA	0.000226 ± 0.015	0.000336 ± 0.012		
UCCUGGAUGUCCUAGCAUAGUAUUUAGUAA	0.00189 ± 0.0037	0.00158 ± 0.0044		

(further entries)

| Sequence | pre-steady-state target cleavage rate [1, 3] | pre-steady-state target cleavage rate [2, 3] | pre-steady-state target cleavage rate [1, 4] | pre-steady-state target cleavage rate [2, 4] |
| --- | --- | --- | --- | --- |
| UCCUGGAUGUCGAACGAUAGAAUUUUGUUA |  |  | 0.0028 ± 0.0077 | 0.00355 ± 0.0076 |
| UCCUGGUACAGCUUGCAUAGUAUUUGUUA | 0.00253 ± 0.0038 | 0.00226 ± 0.0031 |  |  |
| UCCUGGAUGAGCUUGCAUAGAAAUUAGUUA | 0.00138 ± 0.0046 | 0.0014 ± 0.0029 |  |  |
| UCCUGGUACAGCUUCCAUAGUAUAUAGUUA | 0.000747 ± 0.01 | 0.00101 ± 0.0063 |  |  |
| UCCUGGAUGUCCUACCAUAGUAUUUAGUAA | 0.00059 ± 0.0095 | 0.001 ± 0.006 |  | 0.00295 ± 0.0048 |
| UCCUGGUACUCGUUGCAUAGUAUUUUCAAA | 0.000813 ± 0.0089 | 0.000318 ± 0.014 |  | 0.00145 ± 0.011 |
| UCCUGCUACAGCUUCCAUACUAUUUAGUUA | 0.000495 ± 0.0086 | 0.000933 ± 0.0067 |  |  |
| UCCUGGAACAGCUUGCAUACAUUUUUCAAA | 0.000547 ± 0.0087 | 0.000232 ± 0.014 |  | 0.00253 ± 0.0051 |
| UCCUGGAUGUCGAACCAUAGUAUUUCGUUA | 0.000129 ± 0.031 | 0.000286 ± 0.016 |  | 0.000494 ± 0.0081 |
| UCCUGGAUGUGCUUGGAUUGUAUUUAGUUA | 0.00095 ± 0.0079 | 0.000173 ± 0.036 |  | 0.000337 ± 0.032 |
| UCCUGGAACAGCUUGCAUAGUUUUAGUUA | 0.00193 ± 0.0033 | 0.00148 ± 0.0042 |  | 0.00365 ± 0.0043 |
| UCCUGGAUGUCGAACCUUAGUAUUUUGUUA | 0.000324 ± 0.015 | 0.000467 ± 0.013 |  |  |
| UCCUGGAUGUGCUUGCAUAGUAUUAUCUAA | 0.000714 ± 0.0088 | 0.00107 ± 0.0062 |  |  |
| UCCUGGAACAGCUUGCAUAGUUAAUAGAAA | 0.00068 ± 0.0087 | 0.000468 ± 0.0075 |  |  |
| UCCUGGAUCAGCUUGCUUAGUAUUUACAAA | 0.000967 ± 0.0059 | 0.00145 ± 0.0051 |  |  |
| UCCUGGAUGUCGAACCAUAGUAUUUAUUUA |  | 0.000225 ± 0.026 | 0.000212 ± 0.031 | 0.000324 ± 0.017 |
| UCCUGGAUGUCGUUGUCAUAGUAUUUAGUUA | 0.00173 ± 0.0045 | 0.00121 ± 0.0081 |  |  |
| UCCUCCUACAGCUUGCUAUCAUAAAUCAAA [g15:g26:cont:t1A] | 0.000107 ± 0.031 | 0.000577 ± 0.013 |  |  |
